For at least one compound, name, drawing or mass did not settle the structure.
Tested on: heart failure rat model
Assay type: in vivo
Conditions: male Lewis rats, heart failure by permanent ligation of left descending coronary artery, ejection fraction <35%; dosed acutely for 30 min
Experimental: Male Lewis rats (Charles River, USA) at 2-3 months of age were used for the study. […] APJ agonists were administered dose dependently acutely for a period of 30 min.

`COc1cccc(OC)c1-n1c(NS(=O)(=O)[C@@H](C)[C@H](O)c2ncc(C)cn2)nnc1-c1cccc(C)n1` [Example 99.0] was tested, and the “cardiac contractility as measured by dP/dtmax (derivative of left ventricular pressure)” value was “increase in cardiac contractility”.

From patent US9845310B2 (priority 2015, dated 2017)
